# Measured values from patent US20100249031A1, “Nutritional Composition Comprising Curcuminoids and Methods of Manufacture” (priority 2009, published 2010).
# Assay: Solubilization of CURCUMIN C3 COMPLEX curcuminoids in MCT oil (NEOBEE 1053) as a function of temperature, HPLC
# Type: physicochemical
# Conditions: at temperatures below 95° C.
compound,measurement,value
"COc1cc(/C=C/C(=O)CC(=O)/C=C/c2ccc(O)c(OC)c2)ccc1O [Curcumin, curcumin]",Solubility in MCT oil,not appreciably soluble
